Results are given in words; binding and its absence hold for the method and conditions named. Some results given as binding are weak or reduced against the parent protein; the word gives no strength.
How the values were obtained:
Assay in all cases: peptide or protein array; HuProt human proteome microarray; 5 ug/5 ml biotin-labelled LUBAC or OTULIN in solution, 1 h at room temperature; Cy5-streptavidin, scanned at 635 nm; BSA as negative control; hits: Z-score >= 3 and I_(Mean_Ratio) >= 1.4; both purified
DARS2 (human) = biological target: T1, DARS2 (human) (UniProt Q6PI48)
T1 sequence: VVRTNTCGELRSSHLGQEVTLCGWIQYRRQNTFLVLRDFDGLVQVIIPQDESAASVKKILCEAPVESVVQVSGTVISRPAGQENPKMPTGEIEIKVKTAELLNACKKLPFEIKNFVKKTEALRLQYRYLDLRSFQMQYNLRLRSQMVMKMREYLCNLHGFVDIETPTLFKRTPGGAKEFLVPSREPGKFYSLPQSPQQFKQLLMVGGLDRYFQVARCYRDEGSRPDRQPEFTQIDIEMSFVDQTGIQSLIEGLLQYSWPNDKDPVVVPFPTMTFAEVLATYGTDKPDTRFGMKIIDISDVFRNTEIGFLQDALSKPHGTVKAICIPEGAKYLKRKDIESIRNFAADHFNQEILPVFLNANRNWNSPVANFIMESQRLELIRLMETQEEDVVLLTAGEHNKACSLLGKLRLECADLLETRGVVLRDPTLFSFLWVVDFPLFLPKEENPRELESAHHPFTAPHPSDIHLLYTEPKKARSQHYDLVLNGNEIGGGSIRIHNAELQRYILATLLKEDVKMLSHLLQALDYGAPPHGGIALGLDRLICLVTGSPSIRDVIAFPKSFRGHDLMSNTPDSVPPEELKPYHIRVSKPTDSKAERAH

Amino acid sequences for entries named in this document (tags omitted).
UniProt P33993: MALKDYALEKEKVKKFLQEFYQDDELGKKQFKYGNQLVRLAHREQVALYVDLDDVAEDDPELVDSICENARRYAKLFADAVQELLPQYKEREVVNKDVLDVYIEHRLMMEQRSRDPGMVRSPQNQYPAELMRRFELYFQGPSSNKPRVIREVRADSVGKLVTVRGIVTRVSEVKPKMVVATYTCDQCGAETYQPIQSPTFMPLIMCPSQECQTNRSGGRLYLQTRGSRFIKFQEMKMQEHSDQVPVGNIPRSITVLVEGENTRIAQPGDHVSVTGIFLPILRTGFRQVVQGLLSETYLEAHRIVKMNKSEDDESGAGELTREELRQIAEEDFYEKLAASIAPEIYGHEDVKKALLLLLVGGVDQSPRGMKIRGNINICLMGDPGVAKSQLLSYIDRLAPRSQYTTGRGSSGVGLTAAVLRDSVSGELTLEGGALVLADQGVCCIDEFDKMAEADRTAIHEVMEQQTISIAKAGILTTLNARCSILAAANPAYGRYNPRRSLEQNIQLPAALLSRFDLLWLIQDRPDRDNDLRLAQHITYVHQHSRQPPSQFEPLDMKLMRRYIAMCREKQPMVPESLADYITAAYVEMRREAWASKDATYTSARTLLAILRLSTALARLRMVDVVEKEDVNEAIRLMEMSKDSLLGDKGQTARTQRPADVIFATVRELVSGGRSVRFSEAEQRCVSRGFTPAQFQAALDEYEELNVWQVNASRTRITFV
UniProt P49848: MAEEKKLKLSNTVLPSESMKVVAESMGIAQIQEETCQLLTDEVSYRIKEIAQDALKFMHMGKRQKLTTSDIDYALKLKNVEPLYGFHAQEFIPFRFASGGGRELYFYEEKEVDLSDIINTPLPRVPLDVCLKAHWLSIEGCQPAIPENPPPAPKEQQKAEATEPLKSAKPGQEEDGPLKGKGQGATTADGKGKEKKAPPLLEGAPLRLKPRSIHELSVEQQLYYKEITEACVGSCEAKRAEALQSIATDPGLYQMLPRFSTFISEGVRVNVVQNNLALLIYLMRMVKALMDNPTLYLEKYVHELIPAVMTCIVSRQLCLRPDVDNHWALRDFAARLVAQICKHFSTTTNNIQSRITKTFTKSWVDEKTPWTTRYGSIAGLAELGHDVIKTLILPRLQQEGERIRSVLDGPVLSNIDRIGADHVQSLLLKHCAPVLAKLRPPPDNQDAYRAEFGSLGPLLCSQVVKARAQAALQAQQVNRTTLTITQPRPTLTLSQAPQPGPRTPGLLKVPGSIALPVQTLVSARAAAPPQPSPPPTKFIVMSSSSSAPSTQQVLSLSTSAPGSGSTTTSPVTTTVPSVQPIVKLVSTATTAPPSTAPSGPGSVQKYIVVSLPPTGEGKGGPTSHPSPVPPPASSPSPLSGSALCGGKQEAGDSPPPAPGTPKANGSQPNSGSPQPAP
UniProt O95619: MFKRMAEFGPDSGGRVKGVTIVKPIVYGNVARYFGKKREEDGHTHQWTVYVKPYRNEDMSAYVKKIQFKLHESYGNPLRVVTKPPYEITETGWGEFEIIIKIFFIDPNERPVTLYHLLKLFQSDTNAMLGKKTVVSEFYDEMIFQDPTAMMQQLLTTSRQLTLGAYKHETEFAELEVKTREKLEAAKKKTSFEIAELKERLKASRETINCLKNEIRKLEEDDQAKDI

IVD (human) = biological target: T2, IVD (human) (UniProt P26440)
T2 sequence: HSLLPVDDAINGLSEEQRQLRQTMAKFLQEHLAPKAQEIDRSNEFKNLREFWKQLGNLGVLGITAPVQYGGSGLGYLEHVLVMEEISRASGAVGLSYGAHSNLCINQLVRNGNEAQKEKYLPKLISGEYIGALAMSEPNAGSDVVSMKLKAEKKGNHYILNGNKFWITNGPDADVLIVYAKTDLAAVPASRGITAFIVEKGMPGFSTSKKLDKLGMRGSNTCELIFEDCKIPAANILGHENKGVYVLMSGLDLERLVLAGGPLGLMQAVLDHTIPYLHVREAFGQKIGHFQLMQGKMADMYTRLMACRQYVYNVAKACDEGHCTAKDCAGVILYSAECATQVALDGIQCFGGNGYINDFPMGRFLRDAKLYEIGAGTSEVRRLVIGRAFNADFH

MCM7 (human) = MCM7 (human) (UniProt P33993)
POP7 (human) = biological target: T3, POP7 (human) (UniProt O75817)
T3 sequence: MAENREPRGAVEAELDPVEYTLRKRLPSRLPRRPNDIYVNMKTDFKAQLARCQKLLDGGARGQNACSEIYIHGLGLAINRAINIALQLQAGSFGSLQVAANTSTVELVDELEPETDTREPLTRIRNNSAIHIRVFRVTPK

TAF6 (human) = TAF6 (human) (UniProt P49848)
VAT1 (human) = biological target: T4, VAT1 (human) (UniProt Q99536)
T4 sequence: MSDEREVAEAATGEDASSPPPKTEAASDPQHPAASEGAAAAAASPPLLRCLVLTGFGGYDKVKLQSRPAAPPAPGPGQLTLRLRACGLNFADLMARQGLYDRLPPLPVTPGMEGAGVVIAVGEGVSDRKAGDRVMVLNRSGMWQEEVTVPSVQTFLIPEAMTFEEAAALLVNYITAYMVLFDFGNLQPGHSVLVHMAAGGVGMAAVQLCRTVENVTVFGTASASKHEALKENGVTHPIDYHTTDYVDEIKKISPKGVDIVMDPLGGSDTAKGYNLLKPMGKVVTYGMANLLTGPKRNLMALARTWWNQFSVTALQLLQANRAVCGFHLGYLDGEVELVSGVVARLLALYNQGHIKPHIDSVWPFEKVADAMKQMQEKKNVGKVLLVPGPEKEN

YEATS4 (human) = YEATS4 (human) (UniProt O95619)

binding (DARS2 (human)): binds
binding (IVD (human)): binds
binding (MCM7 (human)): binds
binding (POP7 (human)): binds
binding (TAF6 (human)): binds
binding (VAT1 (human)): binds
binding (YEATS4 (human)): binds
Substance: linear ubiquitin chain assembly complex (LUBAC), purified as HIS-tagged HOIP with the subunit HOIL-1, biotin-labelled (from UniProt Q96EP0 1-1072; Q9BYM8 1-510)

Source: article PMC8274477
